# PubChem BioAssay AID504444 (National Center for Advancing Translational Sciences (NCATS), 2011)
# About 7,500 (2.1%) of roughly 360,000 compounds were called active. Inconclusive results, whose numbers are uncertain, are shown with a selection of clear calls. The call rests on the fitted dose curve; in most records, active means well fitted inhibition curve with a large enough effect; inconclusive means small, poorly fitted or top-dose-only effect, or effect the other way; inactive means flat fitted curve, though single readings scatter. Potencies beside an inconclusive call are fits to weak or partial responses and may not hold up.
# Experiment: Nrf2 qHTS screen for inhibitors; further: nearly all actives have a fitted effect of over 60% in size
# Conditions: A549 ARE-Fluc reporter, luciferase luminescence, 18-24 h; series mostly up to 46 µM
# Method in brief: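 Quantitative HTS in A549 cells stably bearing an antioxidant response element-firefly luciferase construct. Inhibition of Nrf2-driven transcription was scored by luminescence after 18-24 h of compound exposure at 37 °C.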
# Potency means the concentration at half of the fitted maximal effect.
row,Structure (SMILES),Potency
1,COc1ccc(C(=O)Nc2n[nH]c(-c3ccncc3)n2)cc1,"inconclusive: 0.82 µM [falling, partial curve, poor fit]"
2,CC(C)(C)c1ccc(-c2nnc(SCCC#N)n2C2CCCC2)cc1,active: 20.6 µM
3,Cc1cccc(Nc2nc(N)c([N+](=O)[O-])c(N3CC(C)OC(C)C3)n2)c1 (stereo not drawn),active: 18.4 µM
4,Cc1cc(=O)oc2cc(OCC(=O)NCC3CCCO3)ccc12 (stereo not drawn),inactive
5,O=C(Nc1nnc(S(=O)(=O)N2CCOCC2)s1)c1ccc(F)cc1,"inconclusive: 2.91 µM [activator, full curve]"
6,CCn1c2ccccc2c2cc(NC(=O)COC(=O)c3ccc(O)cc3)ccc21,"inconclusive: 18.4 µM [falling, single point]"
7,COC(=O)c1ccccc1NC(=S)N1CCN(c2ccc(OC)cc2)CC1,"inconclusive: 4.11 µM [falling, partial curve]"
8,COc1ccc2oc(C(=O)OCC(=O)NC(C)(C#N)C3CC3)c(C)c2c1 (stereo not drawn),inactive
9,Cc1cc(/C=C2\NC(=O)NC2=O)c(C)n1-c1cccnc1,"inconclusive: 9.2 µM [activator, partial curve, poor fit]"
10,CCCCCn1c(=N)n(CC(O)COc2cccc(C)c2)c2ccccc21 (stereo not drawn),inactive
11,CCCc1cc(C(=O)Cc2ccc(C(=O)OCC)o2)c(O)cc1O,"inconclusive: 29.1 µM [falling, single point]"
12,O=C1C2CCCCC2C(=O)N1c1ccc(S(=O)(=O)Nc2ncccn2)cc1 (stereo not drawn),inactive
13,C/C(=N\NC(=O)c1ccc(Cl)cc1)c1cccnc1,"inconclusive: 5.17 µM [activator, full curve]"
14,O=C(Nc1ccc(Cl)c(S(=O)(=O)N2CCCC2)c1)c1nn(CCO)c(=O)c2ccccc12,"inconclusive: 29.1 µM [falling, single point]"
15,Cc1ccc(-c2ccc(/C=N\NC(=O)c3cc4c(ccc5ccccc54)o3)o2)cc1[N+](=O)[O-],active: 23.1 µM
16,COc1ccc(S(=O)(=O)N2CCN(CC(=O)Nc3ccc(C)c(F)c3)CC2)cc1,"inconclusive: 29.1 µM [falling, single point]"
17,O=C(NC1CCCCC1)c1ccc(-c2ccc(Cl)cc2)o1,"inconclusive: 10.3 µM [activator, partial curve]"
18,Cc1ccc2oc(=O)n(CCNC(=O)Nc3ccc(C)c(F)c3)c2c1,"inconclusive: 3.26 µM [activator, full curve, poor fit]"
19,COc1ccccc1C1C=C(c2ccc(Cl)cc2)Nc2nc(-c3ccc(Cl)cc3)nn21 (stereo not drawn),"inconclusive: 25.9 µM [falling, partial curve, poor fit]"
20,Cc1[nH]c(=S)c(C#N)c2c1CCCC2,inactive
21,CCc1c(C(=O)N/N=C/c2sccc2C)nnn1-c1nonc1N,"inconclusive: 0.103 µM [activator, full curve, poor fit]"
22,O=C(NC1=NCCS1)c1ccc(N2CCCC2=O)cc1,"inconclusive: 11.6 µM [activator, partial curve]"

row,Structure (SMILES),Potency
1,S=C(NCc1cccs1)Nc1cccc(Cl)c1Cl,"inconclusive: 32.6 µM [falling, partial curve, poor fit]"
2,O=C(NCCc1nc2ccccc2[nH]1)c1cccc(Br)c1,active: 25.9 µM
3,Cc1nn(C)c(C)c1Nc1ccc(N2C(=O)C3CC=CCC3C2=O)cc1[N+](=O)[O-] (stereo not drawn),active: 20.6 µM
4,COc1ccc(C(=O)N/N=c2\oc3ccccc3cc2C(=O)NCc2ccccc2)cc1,inactive
5,CO/N=C(\c1nonc1N)N1CCN(c2ccc([N+](=O)[O-])cc2Cl)CC1,"inconclusive: 29.1 µM [falling, single point]"
6,CC(=O)c1ccc(NC(=O)CSc2nc3[nH]ncc3c(=O)[nH]2)cc1,"inconclusive: 4.11 µM [activator, partial curve, poor fit]"
7,COc1ccc(-c2noc(CCC(=O)NCc3ccc(OC)cc3OC)n2)cc1,inactive
8,N#Cc1ccc(OCC(=O)NC2=NCCS2)cc1,"inconclusive: 29.1 µM [activator, single point]"
9,Cc1nn(Cc2ccccc2Cl)c2sc(C(=O)NCCCn3ccnc3)cc12,"inconclusive: 23.1 µM [falling, single point]"
10,O=C(NCc1cccnc1)Nc1cccc(NC(=O)NCc2cccnc2)c1F,"inconclusive: 2.59 µM [falling, full curve, poor fit]"
11,O=C(COC(=O)CNC(=O)c1ccccc1F)Nc1ncc(Cl)cc1Cl,inactive
12,Cc1[nH]c2ccc(C(=O)N3CCN(c4cccc(Cl)c4)CC3)cc2c1C,"inconclusive: 20.6 µM [falling, single point]"
13,Cn1ncc2c(Nc3ccc(Br)cc3)nc(Nc3ccc(Br)cc3)nc21,inactive
14,c1ccc(-c2csc(CN3CCCCC3)n2)cc1,"inconclusive: 4.61 µM [activator, partial curve]"
15,O=C(NCCNS(=O)(=O)c1cccc(C(F)(F)F)c1)c1cc(OCC(F)(F)F)ccc1OCC(F)(F)F,"inconclusive: 29.1 µM [falling, single point]"
16,CCOc1cc2c(cc1OC)C(c1cccc([N+](=O)[O-])c1)NCC2 (stereo not drawn),"inconclusive: 6.51 µM [falling, single point]"
17,CCc1ccc(NC(=O)C(=O)NCC(c2cccnc2)N2CCOCC2)cc1 (stereo not drawn),"inconclusive: 25.9 µM [falling, single point]"
18,CCc1ccc(NC(=O)c2cc3c(=O)n(Cc4cccnc4)ccc3nc2C)cc1,"inconclusive: 16.4 µM [falling, partial curve]"
19,Cc1ccc(-c2csc3ncnc(N4CCN(S(=O)(=O)c5cccs5)CC4)c23)cc1,"inconclusive: 29.1 µM [falling, single point]"
20,Cc1cc(C)c(NC(=O)COc2ccccc2C(=O)Nc2ccc3c(c2)oc2ccccc23)c(C)c1,"inconclusive: 20.6 µM [falling, partial curve, poor fit]"
21,Cc1cccc(C(=O)Nc2cccc(OCc3cc(=O)n4c(C)csc4n3)c2)c1,"inconclusive: 0.206 µM [falling, partial curve, poor fit]"

# In the list so far, these have bromine.
row,Structure (SMILES),Potency
2,O=C(NCCc1nc2ccccc2[nH]1)c1cccc(Br)c1,active: 25.9 µM
13,Cn1ncc2c(Nc3ccc(Br)cc3)nc(Nc3ccc(Br)cc3)nc21,inactive
